The source of these data is PubChem BioAssay AID2685 (National Center for Advancing Translational Sciences (NCATS), 2010).

The other results are listed elsewhere or left out. These are further read-outs of the screen, such as a control signal, another cell line or another target. No call is given for them. Most of these compounds were active or inconclusive in the main read-out, so they are no random draw. Potencies come from curve fits of mixed quality, noted in brackets.

This assay in a line: qHTS Assay for Lipid Storage Modulators in Drosophila S3 Cells.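 For cell number change: cells counted by Cell Tracker Red CMTPX staining in the red channel.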 The settings on record: BODIPY lipid droplet fluorescence, 18-24 h; for cell number change: measured here: cell count max response, cells fed with added oleic acid. In a few lines: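 Laser-scanning cytometry quantifies lipid droplet accumulation (500–530 nm total intensity; droplet/cell object ratio) in oleic acid-fed (400 uM added) Drosophila S3 cells treated with a concentration series. 20 uM Triacsin C defined 100% inhibition.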

Where [1] appears, read: measured here: cell number channel AC50, cells fed with added oleic acid.
Where [2] appears, read: measured here: lipid fluorescence (Fed channel) AC50, cells fed with added oleic acid.

The term AC50 denotes the midpoint of the concentration-response curve, whichever way the signal moves. A low value points to greater potency. `Oc1ccc2ccccc2c1Br`: the cell number change was -67.3%. The AC50 under setting [1] was 20.6 µM [falling, single point].
Consider `CCOC(=O)C1=C(C)NC(=O)NC1c1ccsc1` (centres undefined), for which the cell number change is -16.5%. Moreover, the AC50 under setting [2] was 3.66 µM [rising, single point].
`O=C(Nc1ccccc1)c1cccc(C(=O)Nc2ccccc2)n1`: the cell number change was determined as 41.7%. Also, the AC50 under setting [1] is 32.6 µM [rising, single point]. The AC50 under setting [2] is 4.11 µM [falling, single point].
In the case of `Cc1nc(N2CCN(c3ccccc3)CC2)[nH]c(=O)c1Cc1ccccc1`, the cell number change is -13%. The AC50 under setting [2] is 2.91 µM [falling, full curve, poor fit].
Turning to `COc1ccc(/C=C2\SC(=O)N(CC(=O)Nc3ccc(O)cc3)C2=O)cc1OC`, the cell number change was -8.38%. For the same compound, the AC50 under setting [2] is 11.6 µM [rising, partial curve, poor fit].
Take `Cn1nnnc1SCC(=O)NCC(=O)c1ccccc1`: the cell number change is -12.7%. Moreover, the AC50 under setting [2] was 5.8 µM [falling, single point].
`O=C1c2ccccc2C(=O)N1CCCCSc1nc2ccccc2o1`: the AC50 reads like this: under setting [1], 1.84 µM [rising, partial curve]; under setting [2], 1.64 µM [rising, partial curve].
As for `Cc1ccc(NC(=O)c2ccccn2)cc1S(=O)(=O)N1CCOCC1`, the cell number change is -20.6%. Further, the AC50 under setting [2] was 0.58 µM [falling, single point].
`CC1CCc2c(sc3nc(CN4CCN(S(=O)(=O)c5ccccc5[N+](=O)[O-])CC4)[nH]c(=O)c23)C1` (centres undefined): the cell number change was -9.69%. Also, under setting [2], the AC50 is 14.6 µM [falling, single point].
Regarding `CCC1OC(c2ccc([N+](=O)[O-])cc2)=Nc2ccccc21` (centres undefined), the cell number change was -3.67%. Besides, the AC50 under setting [2] was 20.6 µM [rising, partial curve].
As to `CCOc1ccc(Cn2c3ccc(OC)cc3c3nc4ccccc4nc32)cc1OC`, the cell number change worked out at 48.1%. For the same compound, under setting [1], the AC50 was 29.1 µM [rising, single point]. Besides, the AC50 under setting [2] was 4.61 µM [falling, full curve, poor fit].
Take `N#Cc1c(-c2ccccc2)nc(SCc2ccc([N+](=O)[O-])cc2)[nH]c1=O`: the cell number change was determined as 22.3%. Also, the AC50 under setting [2] was 0.82 µM [rising, full curve, poor fit].
As for `O=C(NCCCn1ccnc1)C1CC2CCC1C2` (centres undefined), the AC50 under setting [2] is 0.731 µM [falling, full curve, poor fit].
For `CSc1ccc(/C=N/NC(=O)CNc2cccc3ccccc23)cc1`, the cell number change was -41.8%. Under setting [1], the half-maximal activity concentration (AC50) is 7.31 µM [falling, partial curve]. Also, under setting [2], the AC50 was 8.2 µM [falling, partial curve].
On to `CCCC(=O)Nc1ccc2c(c1)nc(CN1CCCC1)n2C`, for which the AC50 under setting [2] is 29.1 µM [falling, single point].
On to `CC1CCCC(N2CCN(C(=O)c3cccc(F)c3)CC2)C1` (centres undefined), for which the cell number change worked out at 19.1%. Also, the AC50 under setting [2] was 29.1 µM [rising, single point].
On to `CCOc1ccc(C(=O)Nc2cnn(Cc3ccc(Cl)c(Cl)c3)c2)cc1`, for which the cell number change was determined as 2.3%. Besides, the AC50 under setting [2] was 18.4 µM [falling, single point].
As to `O=C(Nc1nc2ccccc2s1)c1cnccn1`, the cell number change turned out to be 1.84%. The AC50 under setting [1] was 6.51 µM [falling, single point]. The AC50 under setting [2] was 6.51 µM [falling, single point].
In the case of `COc1ccc(N2CC(C(=O)N3CCCC(C)C3)CC2=O)cc1` (centres undefined), the cell number change was -2.76%. Moreover, under setting [2], the AC50 was 29.1 µM [rising, single point].
Consider `COc1ccc(NC(=O)CCS(=O)(=O)c2ccc3c(c2)CCCN3C(C)=O)cc1Cl`, for which the AC50 under setting [1] was 3.26 µM [rising, partial curve].
As for `CCN(CC)CCNC(=O)CS(=O)Cc1nc(-c2ccccc2Cl)oc1C` (centres undefined), the cell number change is 5.06%. Under setting [2], the AC50 was 6.51 µM [falling, single point].
Consider `Cc1ccc(NC(=O)CN2C(=O)N/C(=C/c3cc(C)n(-c4cccc(C(=O)O)c4)c3C)C2=O)cc1`, for which the cell number change was determined as 23.1%. Besides, the AC50 under setting [2] was 0.092 µM [rising, full curve].
On to `CCNC(=O)NC(=O)C(C)OC(=O)c1oc2ccc(OCC)cc2c1C` (centres undefined), for which the cell number change was -0.517%. Further, under setting [2], the AC50 was 0.58 µM [rising, single point].
As for `CC(OC(=O)COc1ccc(Nc2ccccc2)cc1)C(=O)N(C)c1ccccc1` (centres undefined), the cell number change was -15.7%.
`CC(=O)c1cccc(NC(=O)NC(C)c2ccncc2)c1` (centres undefined): the cell number change was -25.9%.
Still for that read-out and setting: the same measure for `COc1ccc(N2CCN(C(=O)CSc3nnc4ncccn34)CC2)cc1`: -21.7%.
`COc1cccc(/C(O)=C2\C(=O)C(=O)N(c3ccccn3)C2c2ccccc2OC)c1` (centres undefined): the cell number change is 4.04%.
Take `Fc1c(F)c(F)c(/C=N/NC(=S)Nc2cccnc2)c(F)c1F`: the cell number change was 44.6%. In addition, the AC50 under setting [1] is 9.2 µM [rising, partial curve, poor fit].
As for `CC1CN(CCCCOc2ccc(Cl)c3ccccc23)CC(C)O1` (centres undefined), the cell number change is -46.6%. The AC50 under setting [1] is 8.2 µM [falling, partial curve, poor fit].
`Cc1noc(/C=C/c2ccco2)c1S(=O)(=O)N1CCC(C(=O)NC(C)c2ccccc2)CC1` (centres undefined): the cell number change was -5.83%. In addition, the AC50 under setting [2] is 1.16 µM [falling, single point].
Take `O=C(CSc1nc2ccccc2c(=O)n1Cc1ccco1)Nc1cccc(O)c1`: the cell number change is 5.56%.
With `Cc1nc2scc(C)n2c(=O)c1S(=O)(=O)NCCc1ccccc1`, the cell number change was -18.6%.
`CCC(C)NC(=O)c1cn(CCOC)c(=O)c2c1c1ccccc1n2C` (centres undefined): the cell number change worked out at 25%. Further, the AC50 under setting [2] was 4.61 µM [rising, single point].
With `O=C(Nc1cccc(O)c1)C1CC(c2c(F)cccc2Cl)=NO1` (centres undefined), the cell number change amounted to 16.4%.
Turning to `COc1ccc(C2=CC(=O)C[C@H](c3ccc(Cl)cc3)C2)cc1`, the cell number change is 4.92%.
On to `Cc1ccc(C(=O)c2cn(Cc3ccc(Cl)cc3)c3nc(C)ccc3c2=O)cc1`, for which the cell number change came out at 33.5%. Besides, the AC50 under setting [1] is 23.1 µM [rising, single point]. Also, under setting [2], the AC50 was 23.1 µM [rising, partial curve, poor fit].
As for `CCOc1ccc(/C=C/[N+](=O)[O-])c2ccccc12`, the cell number change is -46.7%. Under setting [1], the AC50 is 23.1 µM [falling, single point]. Also, the AC50 under setting [2] is 14.6 µM [falling, partial curve].
Regarding `O=C(c1cncc(Br)c1)N1CCN(S(=O)(=O)c2ccccc2)CC1`, the cell number change is 15.3%. Under setting [2], the half-maximal activity concentration (AC50) was 6.51 µM [falling, single point].
On to `CCN(Cc1ccccc1)C(=O)C1CCN(Cc2ccc(OC)c(OC)c2OC)CC1`, for which the cell number change worked out at 4.86%.
For the compound `COc1cc(-c2nnc(SCc3cc(=O)oc4cc(O)c(O)cc34)o2)cc(OC)c1OC`, the cell number change came out at 16.6%. The concentration at half-maximal activity (AC50) under setting [2] was 0.00517 µM [rising, full curve, poor fit].
Take `O=C(CSc1nnc(-c2ccccc2)o1)Nn1cnnc1`: the cell number change worked out at 1.89%. Moreover, under setting [2], the AC50 is 29.1 µM [falling, single point].
As to `CCCCCc1cc(=O)oc2c(C(CCN3CCN(c4ccccc4)CC3)c3ccc4c(c3)OCO4)c(OC)cc(OC)c12` (centres undefined), the cell number change turned out to be 5.52%. Under setting [2], the AC50 was 0.651 µM [rising, full curve, poor fit].
Turning to `Cc1cc(C)c2cc(CN(Cc3nnnn3C3CCCCC3)CC3CCCO3)c(=O)[nH]c2c1` (centres undefined), the cell number change was -13.7%. The AC50 under setting [2] is 1.64 µM [rising, partial curve].
On to `O=C1CN(c2nc(-c3cccnc3)nc3scc(-c4ccccc4)c23)CCN1`, for which the AC50 under setting [2] is 6.51 µM [rising, partial curve, poor fit].
Consider `COc1ccc(-n2c(N3CCN(C)CC3)nc3sc4c(c3c2=O)CCCCC4)cc1`, for which the cell number change was -1.52%. Under setting [2], the AC50 is 6.51 µM [falling, single point].
Regarding `COc1ccc(Cl)cc1NC(=O)C1CSC(c2ccncc2)=N1` (centres undefined), the cell number change was 13.3%. Also, the AC50 under setting [2] is 6.51 µM [rising, single point].
As to `CC1(C)NC(=O)N(CCOc2cccc(Cl)c2Cl)C1=O`, the cell number change was found to be 6.81%.
For the compound `CN(C)S(=O)(=O)c1cccc(NC(=S)N/N=C/C(c2ccccc2)c2ccccc2)c1`, the cell number change is 12.3%. Moreover, the AC50 under setting [2] is 18.4 µM [rising, single point].
Consider `COc1ccccc1OCc1nc(C#N)c(NCCCn2ccnc2)o1`, for which the cell number change was 9.45%. For the same compound, the AC50 under setting [2] was 29.1 µM [rising, single point].
With `O=C(/C=C/Nc1ccc(F)cc1)c1ccc(Br)cc1`, the cell number change was 19.2%.
In the case of `CCOC(=O)c1cnc(SCc2nc(N)nc(Nc3ccc(F)cc3)n2)nc1N`, the cell number change came to 18.5%.
In the case of `CC(C)(C)CC(=O)NC(=S)NCCc1ccccc1`, the cell number change was found to be 39.3%. The AC50 under setting [2] was 3.66 µM [falling, single point].
As to `CC(C)Nc1nnc(SCC(=O)Nc2ccc(F)cc2)s1`, the cell number change was 2.14%.
For `COc1ccc(S(=O)(=O)N2CCCC2C(=O)Nc2ccc(C)cc2)cc1` (centres undefined), the cell number change is 33.2%. The AC50 under setting [1] was 1.46 µM [rising, partial curve]. Besides, the AC50 under setting [2] is 2.91 µM [rising, partial curve].
For `O=C(c1cccc(Oc2ccc([N+](=O)[O-])cc2Cl)c1)N1CCOCC1`, the cell number change is -11.3%. The AC50 under setting [2] is 1.64 µM [rising, partial curve, poor fit].
Take `COc1ccc(C2NC(=O)C(=O)/C2=C(\O)c2ccc(Cl)cc2)cc1OC` (centres undefined): the cell number change worked out at 14.8%. Moreover, under setting [2], the AC50 was 6.51 µM [rising, full curve, poor fit].
For the compound `O=c1c2cccnc2[nH]c(=S)n1CCC1=CCCCC1`, the cell number change is -2%. For the same compound, under setting [2], the AC50 is 32.6 µM [falling, single point].
Turning to `O=C(COc1ccccc1)N=C1SC2CS(=O)(=O)CC2N1c1ccc(F)cc1F` (centres undefined), the cell number change was 20.2%. Moreover, the AC50 under setting [2] is 0.517 µM [rising, full curve, poor fit].
Take `COc1ccc(CC(O)CC2c3c(cc4c(c3OC)OCO4)CCN2C)cc1` (centres undefined): under setting [2], the AC50 is 5.17 µM [rising, partial curve].
Consider `O=C(Nc1ccc(F)cc1)Nc1cc(OCC(F)(F)F)cc(OCC(F)(F)F)c1`, for which the cell number change is -29.8%.
Take `Cc1ccc(NC(=O)NNC(=O)CN2C(=O)COc3ccccc32)cc1`: the cell number change was determined as 6.52%.
Regarding `COCCn1c(SCC(=O)NC2CC2)nnc1-c1ccco1`, the cell number change was 30.2%. Further, the AC50 under setting [2] is 2.59 µM [rising, full curve, poor fit].
For `O=C(Nc1sc2c(c1C(=O)O)CCCC2)c1ccc(Cl)cc1`, the cell number change was determined as 17.5%. In addition, under setting [2], the concentration at half-maximal activity (AC50) was 29.1 µM [rising, single point].
On to `Cc1cc(C)c(S(=O)(=O)C(C)C)c(=O)[nH]1`, for which the cell number change was -4.75%.
